Results of single-concentration screens

The chains behind the UniProt entries cited, without tags or fusion partners. Residues count along the entry.
UniProt A4I591, 1-473: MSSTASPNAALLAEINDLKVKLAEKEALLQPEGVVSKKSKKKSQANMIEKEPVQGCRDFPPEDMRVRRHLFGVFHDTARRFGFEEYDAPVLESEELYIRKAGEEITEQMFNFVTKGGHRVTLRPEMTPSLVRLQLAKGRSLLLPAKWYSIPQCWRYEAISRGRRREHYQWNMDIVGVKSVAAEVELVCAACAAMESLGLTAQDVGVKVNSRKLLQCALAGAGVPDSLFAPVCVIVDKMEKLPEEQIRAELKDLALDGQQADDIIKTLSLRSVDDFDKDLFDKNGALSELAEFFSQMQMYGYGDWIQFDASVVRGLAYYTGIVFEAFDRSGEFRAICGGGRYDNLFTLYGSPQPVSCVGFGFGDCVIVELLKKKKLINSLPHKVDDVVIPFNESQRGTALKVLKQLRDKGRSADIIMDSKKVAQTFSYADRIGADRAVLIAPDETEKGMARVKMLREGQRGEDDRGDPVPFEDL
UniProt P9WFT3, whole entry: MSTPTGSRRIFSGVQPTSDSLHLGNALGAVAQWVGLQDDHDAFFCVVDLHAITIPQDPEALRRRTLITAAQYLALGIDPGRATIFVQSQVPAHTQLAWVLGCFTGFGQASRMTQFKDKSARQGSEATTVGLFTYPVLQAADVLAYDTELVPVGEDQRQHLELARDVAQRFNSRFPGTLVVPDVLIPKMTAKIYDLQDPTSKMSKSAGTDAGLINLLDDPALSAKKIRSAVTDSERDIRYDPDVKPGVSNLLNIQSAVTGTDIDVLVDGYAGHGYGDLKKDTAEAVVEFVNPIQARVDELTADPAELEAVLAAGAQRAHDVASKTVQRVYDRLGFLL
UniProt P9WNZ1, whole entry: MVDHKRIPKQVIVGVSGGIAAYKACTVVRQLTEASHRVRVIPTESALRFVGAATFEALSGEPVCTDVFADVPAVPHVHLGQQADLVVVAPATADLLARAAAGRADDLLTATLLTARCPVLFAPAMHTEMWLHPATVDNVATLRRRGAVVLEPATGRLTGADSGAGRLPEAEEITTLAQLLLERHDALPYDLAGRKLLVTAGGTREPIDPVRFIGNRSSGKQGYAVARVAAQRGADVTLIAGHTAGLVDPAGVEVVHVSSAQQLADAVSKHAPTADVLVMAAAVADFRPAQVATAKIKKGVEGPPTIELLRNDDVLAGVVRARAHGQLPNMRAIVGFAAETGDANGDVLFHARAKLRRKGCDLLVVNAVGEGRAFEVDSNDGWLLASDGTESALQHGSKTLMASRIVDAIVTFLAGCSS

Each number is a percent effect as filed. How 0% and 100% were set is not recorded. Most values in the screen are low, and negative values occur. The compounds are a random part of those screened. Two or more numbers in one place are separate tests of the same structure; such repeats can differ widely.

LiHisRS: 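Enzyme assay of histidyl-tRNA synthetase; the read-out is not stated. Target: Histidine-tRNA ligase, Leishmania infantum (UniProt A4I591). Tested at 30 µM. Higher reads as stronger inhibition (inferred: compounds with an IC50 in retests scored well above the rest). The assay is labelled LdHisRS but filed under L. infantum. About 69,000 compounds were tested under these conditions; 0.6% (about 410) showed 50% or more at least once.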
MtTrpRS: 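Enzyme assay of tryptophanyl-tRNA synthetase; the read-out is not stated. Target: Tryptophan-tRNA ligase, Mycobacterium tuberculosis (UniProt P9WFT3). Tested at 10 µM. Direction is not recorded; retested compounds ran higher, which suggests that high means inhibition. About 65,000 compounds were tested under these conditions; 0.098% (about 64) showed 50% or more at least once.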
CoaBC: 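Coenzyme A biosynthesis protein CoaBC, Mycobacterium tuberculosis (UniProt P9WNZ1). Enzyme assay of CoaBC with a phosphate dye (Biomol Green) read at 650 nm. Concentration: 30 µM. Direction is inferred from only a few compounds that gave an IC50; most scored high, so higher reads as stronger inhibition. Most strong results did not repeat in a second test. Of about 67,000 compounds tested this way, about 40 (0.06%) reached 50% or more in at least one test.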

compound: Cc1ncsc1-c1nnc(C2CCN(Cc3ccccc3Cl)CC2)o1
LiHisRS: 24.64%
CoaBC: -2.427%

compound: Cc1ccc(C)n1-c1ccc(C(=O)NCCNc2ncccn2)cc1
LiHisRS: 53.03%
MtTrpRS: -1.462%
CoaBC: 22.22% and 20.2%

compound: COCc1noc(-c2ccc(N(C)Cc3nccs3)nc2)n1
LiHisRS: 10.4%
MtTrpRS: 1.522%
CoaBC: 0.3619%

compound: CN1CCCCC1Cc1nc2c(cc1C(N)=O)CCC2 (stereo not shown)
LiHisRS: 17.65%
MtTrpRS: -6.99%
CoaBC: 4.294%

compound: CCn1nc(-c2ccccc2F)ccc1=O
LiHisRS: 9.434%
MtTrpRS: -3.521%
CoaBC: -3.524%

compound: CNC(=O)CN1CCC2(CC1)C[C@@H](O)[C@H](c1ccccc1)NC2=O
LiHisRS: 13.1%
MtTrpRS: -0.4706%
CoaBC: 8.282%

compound: Cc1cc(CN(C)C(=O)NCC(C)N2CCc3ccccc32)no1 (stereo not shown)
LiHisRS: 3.125%
MtTrpRS: -1.541%
CoaBC: -4.216%

compound: Cc1occc1C(=O)N1CCCS1(=O)=O
LiHisRS: 16.48%
MtTrpRS: -0.1942%
CoaBC: 1.446%

compound: Nc1cc(C(=O)N2CCC(Oc3cccc(C(F)(F)F)c3)CC2)ccn1
LiHisRS: 21.71%
MtTrpRS: -0.08211%
CoaBC: 3.808%

compound: CC1=N[C@@]2(CC[C@@H]3CN(C(=O)NCC(C)C)C[C@@H]32)C(=O)N1C
LiHisRS: 16.67%
MtTrpRS: -3.625%
CoaBC: 3.226%

compound: CNC(=O)[C@@H]1[C@@H](c2ccccc2)CN2CCN(Cc3ccco3)C[C@H]12
LiHisRS: -4.082%
CoaBC: -4.116%

compound: Cc1nn(-c2ccccn2)c2c1C(c1cnn(C)c1)SCC(=O)N2 (stereo not shown)
LiHisRS: 13.16%
MtTrpRS: 0.7703%
CoaBC: -0.5051%

compound: CCc1n[nH]c(C2CN(Cc3ncc(CC)o3)CCO2)n1 (stereo not shown)
LiHisRS: 15.56%
MtTrpRS: 1.852%
CoaBC: 2.451%

compound: CC(=O)N1CCCC1C(=O)NCCOc1cc(C)cc(C)c1 (stereo not shown)
LiHisRS: -10.96%
MtTrpRS: 1.679%
CoaBC: 0.9639%

compound: Cc1ccc(NC(=O)N2CCCC(O)C2)c(Br)c1 (stereo not shown)
LiHisRS: 14.46%
MtTrpRS: -2.51%
CoaBC: -9.709%

compound: CCN(Cc1noc(CC(C)C)n1)Cc1ccccc1OCC(=O)O
LiHisRS: 15.38%
MtTrpRS: -6.611%
CoaBC: 14.29%

compound: NC(=O)c1ccc(-n2ccnc2-c2cccc(O)c2)cc1N1CCCC1
LiHisRS: 22.22%
MtTrpRS: 1.321%
CoaBC: -1.242%

compound: O=C1CC(c2ccccc2)c2c(n3ccsc3nc2=O)N1 (stereo not shown)
LiHisRS: 15.53%
MtTrpRS: -1.005%
CoaBC: 9.287%

compound: c1ccc(CCN2CCCC(Cn3ccnc3)C2)cc1 (stereo not shown)
LiHisRS: 13.22%
MtTrpRS: 2.034%
CoaBC: 3.672%

compound: Cc1cc(C)n(CC2CN(Cc3ccc4c(c3)OCCO4)CCO2)n1 (stereo not shown)
LiHisRS: 10.59%
MtTrpRS: 0.581%
CoaBC: -0.5076%

compound: COc1ccc(Cl)cc1S(=O)(=O)N1C[C@@H]2CC[C@H](C1)N(C)C2=O
LiHisRS: 15.04%
MtTrpRS: 2.261%
CoaBC: 10.4%

compound: COc1cccc(NC(C(N)=O)c2ccc(Br)cc2)c1 (stereo not shown)
LiHisRS: 13.33%
MtTrpRS: -0.4854%
CoaBC: 4.147%

compound: Fc1cnc(N2CCC3(CC2)CN(Cc2ccccn2)CCO3)nc1
LiHisRS: 17.54%
MtTrpRS: 1.198%
CoaBC: -9.937%

compound: Cc1ccc(F)cc1NC(=O)c1[nH]ncc1Br
LiHisRS: 14.94%
MtTrpRS: -0.571%
CoaBC: -0.4474%

compound: COCc1cc(C[C@@H]2CC[C@H](O)[C@@H](CN(C)C)O2)no1
LiHisRS: 21.62%
MtTrpRS: -1.449%
CoaBC: -5.697%

compound: CCN1CCC(CC(=O)N2CCN(c3ccccc3OC)CC2C)CC1 (stereo not shown)
LiHisRS: 2.5%
MtTrpRS: -0.7236%
CoaBC: -2.112%

compound: Cc1nnc(N2CC[C@H]3C[C@H](C(=O)N(C)C)O[C@@H]3C2)s1
LiHisRS: 20%
MtTrpRS: -3.753%
CoaBC: 0%

compound: COc1cccc2c1OCC(C(=O)NCCc1nnc(N)s1)C2 (stereo not shown)
LiHisRS: 19.78%
MtTrpRS: -1.854%
CoaBC: 1.341%

compound: CN1CCC(Nc2ccc(Cl)cc2OCC(F)(F)F)C1=O (stereo not shown)
LiHisRS: 11.4%
MtTrpRS: -0.1023%
CoaBC: 2.42%

compound: COc1cc(C(=O)N2CCCC(n3ccnc3)C2)cc2c1OCCO2 (stereo not shown)
LiHisRS: 20%
MtTrpRS: -8.818%
CoaBC: 4.198%

compound: O=C(Nc1ccccc1)C1CN(CC2CC2)CC12CCOCC2 (stereo not shown)
LiHisRS: 5.66%
MtTrpRS: -6.611%
CoaBC: 6.218%

compound: COc1cccc2sc(N3CCN(C(=O)c4cc(C)on4)CC3)nc12
LiHisRS: 21.74%
MtTrpRS: -0.6958%
CoaBC: 4.6%

compound: Cc1ccc(S(=O)(=O)Nc2ccc(N3CCSCC3)c(C(=O)O)c2)s1
LiHisRS: 41.43%
MtTrpRS: -1.444%
CoaBC: 22.22% and 45.7%

compound: Cc1cc(C)cc(OCCC(=O)NC2CC(=O)N(C)C2)c1 (stereo not shown)
LiHisRS: 74.65%
MtTrpRS: 2.523%

compound: Cc1nc(-c2ccc(Cl)s2)sc1C(=O)NCCS(N)(=O)=O
LiHisRS: 21.54%
MtTrpRS: -4.568%
CoaBC: 2.024%

The first 3 entries again:

* Cc1ncsc1-c1nnc(C2CCN(Cc3ccccc3Cl)CC2)o1 : LiHisRS: 24.64%; CoaBC: -2.427%
* Cc1ccc(C)n1-c1ccc(C(=O)NCCNc2ncccn2)cc1 : LiHisRS: 53.03%; MtTrpRS: -1.462%; CoaBC: 22.22% and 20.2%
* COCc1noc(-c2ccc(N(C)Cc3nccs3)nc2)n1 : LiHisRS: 10.4%; MtTrpRS: 1.522%; CoaBC: 0.3619%

Data taken from ChEMBL document CHEMBL3988442, “University of Dundee, Small-Polar-MMV Screening Library” (2021).